Test [1] concerns the target GiARF1FB1-HA (Giardia intestinalis) (UniProt A8BES2). The experiment in a line: affinity purification with mass spectrometry.
Test [2] addresses GiARF1FA-HA (Giardia intestinalis) (UniProt A8BCC2). The experiment in a line: affinity purification with mass spectrometry.

No constants are given. Whether binding was seen depends on the method and setting. Binding seen in cells or lysates may run through a third protein. These calls come from enrichment with a bait or labelling near it, and not all partners need be listed.

In the case of “FYVE domain-containing protein (GL50803_16653) (from UniProt A8BDZ8)”, the binding entry in test [1] and in test [2] was “binds” in each case.

For the substance SAR1 GTPase (from UniProt Q8MQT8), the binding result in test [1] is “binds”.

Consider “WD40 domain-containing protein (GL50803_10822) (from UniProt A8B6Z3)”, for which the binding result in test [1] is “binds”.

The values above are taken from article doi:10.1101/2025.10.20.683495.
